# Data source: PubChem BioAssay AID652243 (Drosophila RNAi Screening Center, 2013)
# Screen: 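Fly regulators of androgen-dependent reporter output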 (primary screen)
# Cell system: Drosophila S2R+ cells
# Reagent: long dsRNA against Drosophila genes
# Time to read-out: 72 h (48 h, then 24 h hormone)
# Treatment: synthetic androgen R1881 at 10 nM for 24 h
# Detection: 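Firefly light from an androgen-responsive reporter and Renilla control light per well, raw and unnormalised, for each of two replicates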
# Direction: firefly reporter light: higher = more light from androgen-responsive reporter; Renilla control light: higher = more constitutive control signal (cell number, transfection)
# Rule for the call: 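Hit when the log firefly-to-Renilla ratio dropped or increased by a fixed fold versus the mean of GFP or LacZ controls across duplicate plates; lowering cut given as 1.5 and as 3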
# Meaning of the calls: active = hit: reporter lowered or raised; inactive = no hit
# In all, the deposit lists about 24,000 reagents; this is a random part of those that have a named target and a result. Of all reagents, 246 (1%) were called active. 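Plates not normalised; calls are printed but the firefly/Renilla ratio behind them is not deposited; fold cut for lowering reported inconsistently.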 Raw values are not corrected between plates. Reagents against one gene are numbered here. No sequences are given here. The record does not give: the amount of reagent.
The opening 2 records as a preview:
target gene,dsRNA no.,"firefly reporter light, replicate 1","firefly reporter light, replicate 2","Renilla control light, replicate 1","Renilla control light, replicate 2",activity call
CG8517,1,1.25e5,1.15e5,1.45e6,1.44e6,inactive
pzg (putzig),1,89501,50407,1.59e5,2.15e5,inactive

The listing, repeating the preview:
target gene,dsRNA no.,"firefly reporter light, replicate 1","firefly reporter light, replicate 2","Renilla control light, replicate 1","Renilla control light, replicate 2",activity call
CG8517,1,1.25e5,1.15e5,1.45e6,1.44e6,inactive
pzg (putzig),1,89501,50407,1.59e5,2.15e5,inactive
CG17712,1,8.65e5,1.01e6,2.43e6,1.95e6,inactive
Pi3K59F (Phosphatidylinositol 3-kinase 59F),1,6.51e5,6.96e5,1.19e6,1.53e6,inactive
Pi3K59F (Phosphatidylinositol 3-kinase 59F),2,4.77e5,3.94e5,1.51e6,1.21e6,inactive
Pi3K59F (Phosphatidylinositol 3-kinase 59F),3,,,,,inactive
Pi3K59F (Phosphatidylinositol 3-kinase 59F),4,,,,,inactive
CG32006,1,5.09e5,5.07e5,2.32e6,2.50e6,inactive
CG32006,2,4.87e5,2.80e5,1.72e6,1.40e6,inactive
htk (hat-trick),1,2.02e5,64969,1.32e6,5.11e5,active
htk (hat-trick),2,54725,1.04e5,7.15e5,9.89e5,inactive
htk (hat-trick),3,2.00e5,2.04e5,7.94e5,1.12e6,active
CG8839,1,1.27e6,1.06e6,1.82e6,1.65e6,inactive
CG8701,1,9.41e5,9.80e5,1.90e6,2.00e6,inactive
CG31677,1,7.61e5,7.57e5,2.08e6,2.32e6,inactive
cnk (connector enhancer of ksr),1,1.06e5,1.43e5,2.38e6,2.38e6,inactive
Cse1 (Chromosome segregation 1),1,4.08e5,5.80e5,1.33e6,1.72e6,inactive
Cse1 (Chromosome segregation 1),2,3.07e5,2.58e5,2.61e5,4.41e5,inactive
caps (capricious),1,1.66e5,1.69e5,2.25e6,2.08e6,inactive
caps (capricious),2,7.62e5,8.12e5,1.87e6,1.71e6,inactive
Ip6k (Inositol hexakisphosphate kinase),1,4.81e5,3.78e5,1.56e6,1.35e6,inactive
Ip6k (Inositol hexakisphosphate kinase),2,9.89e5,7.80e5,1.15e6,9.45e5,inactive
Lap1,1,1.02e5,81849,1.84e6,1.84e6,inactive
mthl3 (methuselah-like 3),1,8.45e5,5.16e5,1.22e6,8.12e5,inactive
mthl3 (methuselah-like 3),2,5.91e5,4.04e5,6.49e5,7.15e5,inactive
